For experiment [1], the target named is T1, RNF219 (endogenous) (human (endogenous in HEK-293)) (UniProt Q5W0B1).
T1 sequence: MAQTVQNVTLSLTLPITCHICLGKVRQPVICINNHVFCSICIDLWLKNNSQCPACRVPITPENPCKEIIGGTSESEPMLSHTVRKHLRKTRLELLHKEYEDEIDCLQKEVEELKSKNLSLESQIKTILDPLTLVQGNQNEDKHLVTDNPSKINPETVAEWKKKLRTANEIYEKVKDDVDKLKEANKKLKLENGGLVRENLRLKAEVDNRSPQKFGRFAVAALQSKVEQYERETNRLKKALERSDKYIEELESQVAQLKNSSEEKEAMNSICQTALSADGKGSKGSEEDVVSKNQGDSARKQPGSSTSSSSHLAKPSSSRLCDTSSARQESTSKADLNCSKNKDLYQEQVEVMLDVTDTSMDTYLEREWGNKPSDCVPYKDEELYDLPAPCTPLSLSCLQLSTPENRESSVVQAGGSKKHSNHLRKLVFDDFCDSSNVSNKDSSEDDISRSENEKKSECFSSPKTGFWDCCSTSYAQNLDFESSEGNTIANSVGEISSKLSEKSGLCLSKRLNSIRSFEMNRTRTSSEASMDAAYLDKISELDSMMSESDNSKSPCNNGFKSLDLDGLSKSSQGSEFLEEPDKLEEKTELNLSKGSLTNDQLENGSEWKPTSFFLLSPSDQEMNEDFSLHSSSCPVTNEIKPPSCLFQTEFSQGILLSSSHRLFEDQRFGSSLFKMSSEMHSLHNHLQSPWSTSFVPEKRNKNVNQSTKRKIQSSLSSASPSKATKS
In words: co-IP; endogenous co-IP from HEK-293 cells with antibody to RNF219 or CNOT7 and protein A beads, 300 mM NaCl, overnight at 4°C.

By UniProt entry, the sequences of proteins in these tests, tags left out.
UniProt Q9UIV1: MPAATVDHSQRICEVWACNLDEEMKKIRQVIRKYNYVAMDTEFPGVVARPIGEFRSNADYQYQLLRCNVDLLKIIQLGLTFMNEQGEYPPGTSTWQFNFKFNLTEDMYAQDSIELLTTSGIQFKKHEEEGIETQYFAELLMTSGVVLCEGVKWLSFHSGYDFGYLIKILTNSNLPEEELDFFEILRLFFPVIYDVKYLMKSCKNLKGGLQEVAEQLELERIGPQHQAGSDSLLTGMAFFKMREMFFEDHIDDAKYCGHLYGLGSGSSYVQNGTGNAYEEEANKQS

Experiment [2] concerns the target CNOT7 (human (endogenous in HEK-293)) (UniProt Q9UIV1). Described as above.

Results are given in words; binding and its absence hold for the method and conditions named. In cells and extracts the contact can be indirect. Some results given as binding are weak or reduced against the parent protein; the word gives no strength.

On to CNOT7 (from UniProt Q9UIV1 1-285), for which the binding result in experiment [1] was “binds”.

B1: RNF219 (endogenous) (protein, UniProt Q5W0B1 1-726)
chain: T1 sequence
In the case of B1, the binding result in experiment [2] is reported as “binds”.

Values taken from publication PMC7883825.
